These are yes or no findings as the source states them, for the method shown. Some results given as binding are weak or reduced against the parent protein; the word gives no strength. Where a sequence is shown, tags or fusion partners need not be part of it.

Chains of the proteins cited; added tags and fusions are not shown. Residues count along the entry.
UniProt Q9QUK6, residues 26-835: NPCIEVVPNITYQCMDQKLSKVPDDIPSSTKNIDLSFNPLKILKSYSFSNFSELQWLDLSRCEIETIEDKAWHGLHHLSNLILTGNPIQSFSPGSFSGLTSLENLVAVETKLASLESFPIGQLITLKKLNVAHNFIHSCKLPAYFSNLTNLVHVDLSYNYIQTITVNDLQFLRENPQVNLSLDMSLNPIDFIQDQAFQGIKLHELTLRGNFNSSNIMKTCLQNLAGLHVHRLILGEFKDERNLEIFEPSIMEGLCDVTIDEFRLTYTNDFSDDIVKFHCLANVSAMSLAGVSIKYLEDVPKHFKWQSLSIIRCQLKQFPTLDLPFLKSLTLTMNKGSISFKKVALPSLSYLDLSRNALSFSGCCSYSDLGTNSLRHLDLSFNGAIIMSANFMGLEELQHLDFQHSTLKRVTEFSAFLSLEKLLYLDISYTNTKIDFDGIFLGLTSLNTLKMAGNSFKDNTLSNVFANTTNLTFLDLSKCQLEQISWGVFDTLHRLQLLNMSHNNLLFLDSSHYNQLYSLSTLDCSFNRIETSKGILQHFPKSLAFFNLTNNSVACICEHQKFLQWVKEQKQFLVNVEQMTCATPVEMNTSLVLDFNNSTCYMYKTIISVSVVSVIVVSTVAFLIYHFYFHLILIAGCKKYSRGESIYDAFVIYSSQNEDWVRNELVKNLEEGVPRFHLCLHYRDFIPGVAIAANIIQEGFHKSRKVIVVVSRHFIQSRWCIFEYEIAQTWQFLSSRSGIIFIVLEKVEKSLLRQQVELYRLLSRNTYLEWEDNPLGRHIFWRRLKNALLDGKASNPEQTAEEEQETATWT

The target in assay [1] is TLR4 on primary peritoneal macrophages of wild type mice (mouse) (UniProt Q9QUK6). Put plainly: flow cytometry on WT and Tlr4-/- peritoneal macrophages, FITC anti-His detection (FIG. 11C). On the technique in general: Flow cytometry measures light scatter and fluorescence of single cells or particles in a stream.
For assay [2] the target is unchanged. Description: flow cytometry on peritoneal macrophages, 2 µg/ml AIBP, FITC anti-His detection.

B1: recombinant human AIBP with N-terminal His-tag (baculovirus/insect cell system) (protein, not shown: small tags and cut ends)
chain: QTIACRSGPTWWGPQRLNSGGRWDSEVMASTVVKYLSQEEAQAVDQELFNEYQFSVDQLMELAGLSCATAIAKAYPPTSMSRSPPTVLVICGPGNNGGDGLVCARHLKLFGYEPTIYYPKRPNKPLFTALVTQCQKMDIPFLGEMPAEPMTIDELYELVVDAIFGFSFKGDVREPFHSILSVLKGLTVPIASIDIPSGWDVEKGNAGGIQPDLLISLTAPKKSATQFTGRYHYLGGRFVPPALEKKYQLNLPPYPDTECVYRLQ
Consider B1, for which the binding result in assay [1] and in assay [2] was “binds” throughout.

These data come from patent US20180360993A1.
